No constants are given. Whether binding was seen depends on the method and setting. Binding seen in cells or lysates may run through a third protein. Some results given as binding are weak or reduced against the parent protein; the word gives no strength. Tags and fused reporters may be left off the sequences shown.

The target in the assay is T1, F-TR8-615 (FLAG epitope-tagged TR8, residues 33-615 of FIGS. 1A-C) (human) (UniProt Q9Y6Q6).
T1 sequence: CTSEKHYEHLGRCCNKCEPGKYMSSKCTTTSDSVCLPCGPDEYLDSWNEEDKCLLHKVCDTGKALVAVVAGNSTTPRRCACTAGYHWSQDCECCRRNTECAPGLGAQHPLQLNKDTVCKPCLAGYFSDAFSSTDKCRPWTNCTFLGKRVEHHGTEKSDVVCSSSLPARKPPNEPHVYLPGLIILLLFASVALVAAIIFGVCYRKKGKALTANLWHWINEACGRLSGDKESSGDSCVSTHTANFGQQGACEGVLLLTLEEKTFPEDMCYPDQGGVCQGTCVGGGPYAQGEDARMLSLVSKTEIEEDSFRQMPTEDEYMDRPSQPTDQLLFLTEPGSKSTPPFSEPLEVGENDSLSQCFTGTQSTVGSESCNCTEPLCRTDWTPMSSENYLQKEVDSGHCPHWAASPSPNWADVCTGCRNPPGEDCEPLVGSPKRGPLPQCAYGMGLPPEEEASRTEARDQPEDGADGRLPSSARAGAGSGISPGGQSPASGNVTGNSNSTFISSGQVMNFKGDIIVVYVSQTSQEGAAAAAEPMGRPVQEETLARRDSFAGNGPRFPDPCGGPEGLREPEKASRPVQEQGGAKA
Put plainly: anti-FLAG co-immunoprecipitation from HeLa and 293 lysates, anti-TRAF2 western blot.

B1: endogenous TRAF2 (of HeLa and 293 cells) (protein, human, UniProt Q12933 2-501, looked up)
chain: AAASVTPPGSLELLQPGFSKTLLGTKLEAKYLCSACRNVLRRPFQAQCGHRYCSFCLASILSSGPQNCAACVHEGIYEEGISILESSSAFPDNAARREVESLPAVCPSDGCTWKGTLKEYESCHEGRCPLMLTECPACKGLVRLGEKERHLEHECPERSLSCRHCRAPCCGADVKAHHEVCPKFPLTCDGCGKKKIPREKFQDHVKTCGKCRVPCRFHAIGCLETVEGEKQQEHEVQWLREHLAMLLSSVLEAKPLLGDQSHAGSELLQRCESLEKKTATFENIVCVLNREVERVAMTAEACSRQHRLDQDKIEALSSKVQQLERSIGLKDLAMADLEQKVLEMEASTYDGVFIWKISDFARKRQEAVAGRIPAIFSPAFYTSRYGYKMCLRIYLNGDGTGRGTHLSLFFVVMKGPNDALLRWPFNQKVTLMLLDQNNREHVIDAFRPDVTSSSFQRPVNDMNIASGCPLFCPVSKMEAKNSYVRDDAIFIKAIVDLTGL
For B1, the binding entry was “binds”.

Values taken from patent US20030100069A1 (Human Genome Sciences, published 2003).
